# Some results were stated once for a whole list of compounds, not compound by compound.
# Tested on: female rats
# Test: Lordosis response in estrogen-primed female rats (PDE1 inhibitor effect on sexual response)
# Format: in vivo, rat
# Conditions: ovariectomized, cannulated wild-type rats primed with 2 μg estrogen; icv injection 24 hours later; even at 0.1 mg; similar to progesterone, significantly higher (p<0.001) than vehicle
row,SMILES,lordosis quotient (LQ=number of lordosis/10 mounts×100)
1,"COc1ccc(Cn2c(=O)n(C)c(=O)c3c(Nc4ccccc4)n(Cc4ccc(-c5ccccc5)cc4)nc32)cc1 [Example 2, 2-(Biphenyl-4-ylmethyl)-7-(4-methoxybenzyl)-5-methyl-3-(phenylamino)-2H-pyrazolo[3,4-d]pyrimidine-4,6(5H,7H)-dione]",over 75
2,"CC(C)Cn1c(=O)n(C)c(=O)c2c(Nc3ccccc3)n(Cc3ccc(-c4ccccc4)cc3)nc21 [Example 1, 2-(Biphenyl-4-ylmethyl)-7-isobutyl-5-methyl-3-(phenylamino)-2H-pyrazolo[3,4-d]pyrimidine-4,6(5H,7H)-dione]",over 75
